# Data published in PubChem BioAssay AID651640 (Broad Institute, 2012).
# About 6,000 (1.7%) of roughly 350,000 compounds were called active. This list was built around the results that the source calls inconclusive (neither active nor inactive); the mix of calls is not that of the screen. Cut-off read from the data, not from the text of the source: active = CPE inhibition above about 20% (passing the limit was not always enough); inconclusive = no clear call, values can overlap the other calls; tested in BHK-21 cells.
# Assay: protection of cells from dengue 2 killing – plate reader, single concentration, primary screen (AID 651640);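 note: 0% = median of neutral control wells and 100% = median of positive control wells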
# Details: DENV2-infected cells, cytopathic effect rescue, at 9.99 µM, hits give high values
row,Compound,CPE inhibition
1,O=C(COC(=O)c1cc(Cl)nc(Cl)c1)NCCc1ccc(F)cc1,inconclusive: 27.3%
2,COc1ccc2[nH]c3c(c2c1)CCN1C(=O)C(CC(=O)NCCc2ccccn2)C[C@H](C(=O)N(C(C)C)C(C)C)[C@@]31C (some centres not stated),inconclusive: 114%
3,O=C1CNC[C@@H]2[C@@H](c3ccc(C4=CCCCC4)cc3)[C@H](CO)N12,inconclusive: 28.7%
4,CCOC(=O)C1(Cc2cccc(OC)c2)CCCN(C(=O)CCN2CCCO2)C1 (configuration not stated),inconclusive: 46.2%
5,CCCC(C)NC(=O)Cc1ccc(S(=O)(=O)N2CCOCC2)s1 (configuration not stated),inconclusive: 22.8%
6,C[C@H](CO)N1C[C@H](C)[C@@H](CN(C)C(=O)Nc2ccc(F)cc2)Oc2ncc(C#Cc3ccc(F)cc3)cc2C1=O,inactive: 3.95%
7,C[C@@H]1CN([C@H](C)CO)C(=O)Cc2cc(NC(=O)Cn3cnnn3)ccc2O[C@@H]1CN(C)CC1CCCCC1,active: 21.5%
8,O=C(CCN1CCOCC1)N/N=C/c1cc([N+](=O)[O-])ccc1OC(F)F,active: 21.5%
9,O=C1CN(S(=O)(=O)Cc2ccccc2)C[C@H]2[C@@H](c3ccc(C#CCC4CCCC4)cc3)[C@@H](CO)N12,inconclusive: 25%
10,COC(=O)[C@]1(C)N[C@H](c2ccc(-c3ccc(Cl)c(Cl)c3)cc2)[C@@H]2C(=O)N(C)C(=O)[C@@H]21,inconclusive: 82.4%
11,CCCCS(=O)(=O)N1CCCc2nc(-c3ccc(Br)cc3)ccc21,inconclusive: 38.6%
12,C/C=C/Cn1c(N(C)Cc2ccccc2)nc2c1c(=O)[nH]c(=O)n2C,inconclusive: 30.6%
13,CNC(=O)C[C@@H]1CC[C@@H]2[C@H](COC[C@@H](O)CN2Cc2ccncc2)O1,active: 24.9%
14,O=C(C[C@@H]1C=C[C@H](NC(=O)c2ccncc2)[C@@H](CO)O1)Nc1ccc(-c2ccccc2)cc1,inactive: 8.47%
15,Cc1nnc(NC(=O)CSc2nnc(C)c(=O)n2N)s1,inconclusive: 64.2%
16,COc1cccc(NC(=O)C/C(C)=N/NC(=O)C2CCCCC2)c1,inconclusive: 22.5%
17,Cc1ccc(-c2nnc(COC(=O)c3cccs3)o2)cc1,inconclusive: 34.6%
18,CC(=O)Nc1ccc2c(c1)C(=O)N(C)[C@@H]1CC[C@@H](CC(=O)NCc3ccccc3Cl)O[C@@H]1CO2,inconclusive: 30.6%
19,C[C@@H]1CCCCO[C@H](CN(C)C(=O)CCCN(C)C)[C@@H](C)CN([C@H](C)CO)C(=O)c2cc(NC(=O)CCCN(C)C)ccc2O1,active: 20.4%
20,CC1C=CCC2C(=O)N(c3ccc(OC(=O)c4ccco4)cc3)C(=O)C12 (configuration not stated),inconclusive: 35.8%
21,O=C(CN1CCN(Cc2ccccc2)CC1)NNC(=O)c1ccccc1,active: 26.4%
22,O=C(c1cccc(F)c1)N1C[C@H]2[C@@H](c3ccccc31)[C@H](CO)N2C(=O)Cc1ccccc1,inactive: 5.1%
23,C[C@H]1CCCCO[C@H](CN(C)C(=O)Nc2ccc(F)cc2)[C@@H](C)CN([C@@H](C)CO)C(=O)c2cc(NC(=O)CCC(F)(F)F)ccc2O1,inconclusive: 23%
24,COc1cc(NC(=O)CN2C(=O)COc3ccc(S(=O)(=O)N4CCOCC4)cc32)cc(OC)c1,inconclusive: 30.8%

row,Compound,CPE inhibition
1,O=C(Sc1ccc(Cl)cc1)c1cccc(Cn2cc(C(F)(F)F)ccc2=O)c1,inconclusive: 45.1%
2,COc1cc(S(=O)(=O)N2CCOCC2)ccc1N,inactive: -1.94%
3,CC(C)NC(=O)Nc1ccc2c(c1)C(=O)N([C@H](C)CO)C[C@H](C)[C@@H](CN(C)C(=O)Nc1cccc3ccccc13)OCCCC[C@H](C)O2,inactive: 6.44%
4,CN(C[C@H]1N[C@@H](CO)[C@H]1c1ccc(-c2cccc(F)c2)cc1)S(C)(=O)=O,inactive: -10.9%
5,CC(C)OC(=O)CCCNc1ccc([N+](=O)[O-])cc1[N+](=O)[O-],active: 52.6%
6,COc1ccc(Br)cc1CNC(=O)Cc1cccs1,inconclusive: 23.5%
7,COCC(=O)N1CCCCN2[C@@H](CO)[C@H](c3ccc(C#Cc4ccc(OC)cc4)cc3)[C@@H]2C1,inactive: -4.05%
8,CC1(C(=O)NCc2ccccc2)Cc2c(-c3cccc(C(F)(F)F)c3)ccnc2O1 (configuration not stated),inactive: -1.29%
9,O=C(CN1C(=O)NC2(CCc3ccccc32)C1=O)NCc1ccc(Cl)cc1 (configuration not stated),inconclusive: 23.2%
10,C/C=C/c1cnc2c(c1)C(=O)N([C@H](C)CO)C[C@H](C)[C@H](CN(C)S(=O)(=O)c1ccccc1)O2,active: 79.5%
11,COc1ccc(NC(=O)Nc2cccc3c2O[C@@H](CN(C)C(=O)NC(C)C)[C@@H](C)CN([C@@H](C)CO)C3=O)cc1,active: 38.5%
12,Cc1ccc(Cn2ncc3c(N4CCN(C)CC4)ncnc32)cc1,inactive: -2.54%
13,Cc1noc(C)c1NC(=O)N(C)C[C@H]1OCCCC[C@@H](C)Oc2ccc(NS(=O)(=O)c3ccc(Cl)cc3)cc2C(=O)N([C@@H](C)CO)C[C@H]1C,inconclusive: 41.5%
14,O=C(NCCN1C(=O)C2C3C=CC(C3)C2C1=O)N1CCCCC1 (configuration not stated),inconclusive: 41.5%
15,C[C@@H]1CN([C@@H](C)CO)C(=O)c2cc(NC(=O)Nc3ccc4c(c3)OCO4)ccc2O[C@@H]1CN(C)Cc1ccc2c(c1)OCO2,active: 41.9%
16,O=C(NCc1nc2ccccc2[nH]1)C1=C[C@@H](c2ccc3c(c2)OCO3)C[C@@H](OCCCCO)O1,inactive: 17.8%
17,CCOC(=O)[C@]12CCC=C1N(Cc1ccc3c(c1)OCO3)C(=O)[C@H](CC(=O)NCc1cccc(C(F)(F)F)c1)C2,inconclusive: 25.9%
18,COc1ccc2c3c(n(C)c2c1)[C@H](CO)N(CC1CC1)CC31CN(C(=O)Nc2ccccc2)C1,active: 22.7%
19,CC(=O)c1cccc(NC(=S)N2CCN(S(=O)(=O)c3ccccc3)CC2)c1,active: 68.9%
20,CN1CCN(C(=O)C[C@@H]2CC[C@H]3[C@@H](COC[C@@H](O)CN3Cc3cccc(Cl)c3)O2)CC1,active: 27.1%
21,CCN(CC(=O)NCc1ccc(Cl)cc1)C(=O)CCOc1ccccc1C,inconclusive: 22.8%
22,Cc1oc2c(c(C)nn2-c2ccccc2)c(=O)c1Cl,inconclusive: 21.5%
23,CC(C)CC#Cc1cnc2c(c1)C(=O)N([C@@H](C)CO)C[C@@H](C)[C@H](CN(C)Cc1ccccn1)O2,inconclusive: 53.7%
24,CSc1ccc(/C=C/C(=O)OCC(=O)N2CCN(S(=O)(=O)c3ccc(C)cc3C)CC2)cc1,active: 24.7%

row,Compound,CPE inhibition
1,COCCCNC(=S)Nc1cc2oc3ccccc3c2cc1OC,inactive: -4.45%
2,COc1ccc(CN2C[C@H](O)COC[C@H]3O[C@H](CC(=O)NCc4ccncn4)CC[C@@H]32)cc1,active: 20.8%
3,COCC(=O)Nc1ccc2c(c1)C(=O)N(C)[C@H]1CC[C@@H](CC(=O)NCC3CCCCC3)O[C@@H]1CO2,inconclusive: 29.3%
4,Brc1ccccc1C1Nc2cccc3cccc(c23)N1,inconclusive: 34.1%
5,COc1ccc(N2CCN(C(=O)NCc3ccc(C)cc3)CC2)cc1,inactive: -4.98%
6,COc1cccc(CNC(=O)c2cc(S(=O)(=O)N3CCCCC3)ccc2C)c1,inconclusive: 100%
7,CCC1(C)COC(C)(CC(=O)NNC(=O)Nc2ccccc2)OC1 (configuration not stated),inconclusive: 30%
8,CCCN(C)C[C@H]1OCCCC[C@H](C)Oc2ccc(NS(=O)(=O)c3ccccc3)cc2C(=O)N([C@H](C)CO)C[C@H]1C,inconclusive: 37.8%
9,CC(=O)Nc1ccc(OCCCN2CCC(C(O)(c3ccccc3)c3ccccc3)CC2)cc1,active: 34.1%
10,Fc1c(F)c(-n2nnc3ccccc32)c(F)c(F)c1Cl,inconclusive: 20.4%
11,C[C@@H]1CN([C@H](C)CO)C(=O)c2cc(NS(=O)(=O)c3cn(C)cn3)ccc2O[C@@H]1CN(C)Cc1ccc(Oc2ccccc2)cc1,inconclusive: 23.7%
12,CN1c2ccc(C#Cc3cccnc3)cc2[C@@H]2[C@@H](CCN2S(=O)(=O)c2cccc(F)c2)[C@@H]1CO,inconclusive: 24.2%
13,COc1cccc(NC(=O)N[C@H]2C=C[C@@H](CC(=O)N3CCCCC3)O[C@H]2CO)c1,inactive: -13.3%
14,O=C(C[C@H]1CC[C@@H]2[C@H](COC[C@@H](O)CN2C(=O)Nc2ccc(Cl)cc2)O1)NCCc1ccncc1,inconclusive: 21.7%
15,CCCCCN(C(=O)CCC(=O)OCC(=O)N(C)c1ccccc1)c1c(N)n(CCCC)c(=O)[nH]c1=O,inconclusive: 28.2%
16,C[C@@H]1CCCCO[C@H](CN(C)S(=O)(=O)c2ccc(F)cc2)[C@H](C)CN([C@@H](C)CO)C(=O)c2cc(NS(C)(=O)=O)ccc2O1,inactive: -7.01%
17,COc1ccc(N2C(=O)C(CC(N)=O)N(NC(=O)c3cccc(OC)c3)C2=S)cc1 (configuration not stated),active: 30.8%
18,COc1cc(C(=O)NCc2cccc(Cl)c2)ccc1OCC(=O)N1CCOCC1,active: 115%
19,C[C@H]1CN([C@@H](C)CO)C(=O)c2cc(NS(=O)(=O)c3ccccc3)ccc2O[C@H]1CN(C)Cc1ccccc1,inactive: 10.1%
20,NS(=O)(=O)c1cccc(NC(=O)Nc2ccccc2)c1,inconclusive: 58.1%
21,COc1cccc(S(=O)(=O)Nc2ccc3c(c2)C(=O)N(C)C[C@@H](OC)[C@@H](C)CN(C(=O)Cc2cccnc2)[C@H](C)CO3)c1,active: 51.8%
22,CCN(C(=O)c1cnc(NC(C)C)cc1C(F)(F)F)c1ccc(Cl)cc1Cl,inconclusive: 25.3%
23,O=C(CCCC(=O)Nc1cccc(Br)c1)N/N=C/c1cc([N+](=O)[O-])ccc1O,inconclusive: 25.7%
24,CCOc1cccc(/C=N/NC(=O)c2cccnc2)c1O,inconclusive: 46%

# Of the compounds above, 5 have two or more sulfur atoms:
row,Compound,CPE inhibition
5,CCCC(C)NC(=O)Cc1ccc(S(=O)(=O)N2CCOCC2)s1 (configuration not stated),inconclusive: 22.8%
15,Cc1nnc(NC(=O)CSc2nnc(C)c(=O)n2N)s1,inconclusive: 64.2%
19,CC(=O)c1cccc(NC(=S)N2CCN(S(=O)(=O)c3ccccc3)CC2)c1,active: 68.9%
24,CSc1ccc(/C=C/C(=O)OCC(=O)N2CCN(S(=O)(=O)c3ccc(C)cc3C)CC2)cc1,active: 24.7%
16,C[C@@H]1CCCCO[C@H](CN(C)S(=O)(=O)c2ccc(F)cc2)[C@H](C)CN([C@@H](C)CO)C(=O)c2cc(NS(C)(=O)=O)ccc2O1,inactive: -7.01%
